These are yes or no findings as the source states them, for the method shown. In cells and extracts the contact can be indirect. Some entries that bind do so weakly or less than the wild type. For some of these results: Where a sequence is shown, tags or fusion partners need not be part of it. Each block holds one substance with its values, some of them ahead of it.
Tests used:
[1] = molecular target: T1, SEC23B peptide (a.a. 180-194) (human); test: pull-down; peptides conjugated to beads, in vitro binding with FBXW5 in vitro transcribed/translated in rabbit reticulocyte system; bound FBXW5 detected by immunoblotting; only the target purified
T1 sequence (peptide): CEGISKSYVFRGTKD

By UniProt entry, the sequences of proteins in these tests, tags left out.
UniProt Q969U6: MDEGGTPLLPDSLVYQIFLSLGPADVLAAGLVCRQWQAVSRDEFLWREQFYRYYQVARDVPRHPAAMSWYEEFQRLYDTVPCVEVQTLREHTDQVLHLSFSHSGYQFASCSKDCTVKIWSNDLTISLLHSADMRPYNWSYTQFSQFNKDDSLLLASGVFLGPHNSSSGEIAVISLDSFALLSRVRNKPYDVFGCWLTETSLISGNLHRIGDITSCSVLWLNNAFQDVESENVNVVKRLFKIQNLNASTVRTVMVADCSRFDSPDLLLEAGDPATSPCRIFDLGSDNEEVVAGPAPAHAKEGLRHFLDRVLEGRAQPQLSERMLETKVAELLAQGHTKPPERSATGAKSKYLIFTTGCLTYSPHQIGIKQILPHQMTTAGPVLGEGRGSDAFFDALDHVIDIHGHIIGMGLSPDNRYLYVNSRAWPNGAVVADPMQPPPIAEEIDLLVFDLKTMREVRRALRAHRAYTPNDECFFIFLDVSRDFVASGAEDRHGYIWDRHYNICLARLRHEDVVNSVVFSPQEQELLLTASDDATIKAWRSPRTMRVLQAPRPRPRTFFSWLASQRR
UniProt Q15436: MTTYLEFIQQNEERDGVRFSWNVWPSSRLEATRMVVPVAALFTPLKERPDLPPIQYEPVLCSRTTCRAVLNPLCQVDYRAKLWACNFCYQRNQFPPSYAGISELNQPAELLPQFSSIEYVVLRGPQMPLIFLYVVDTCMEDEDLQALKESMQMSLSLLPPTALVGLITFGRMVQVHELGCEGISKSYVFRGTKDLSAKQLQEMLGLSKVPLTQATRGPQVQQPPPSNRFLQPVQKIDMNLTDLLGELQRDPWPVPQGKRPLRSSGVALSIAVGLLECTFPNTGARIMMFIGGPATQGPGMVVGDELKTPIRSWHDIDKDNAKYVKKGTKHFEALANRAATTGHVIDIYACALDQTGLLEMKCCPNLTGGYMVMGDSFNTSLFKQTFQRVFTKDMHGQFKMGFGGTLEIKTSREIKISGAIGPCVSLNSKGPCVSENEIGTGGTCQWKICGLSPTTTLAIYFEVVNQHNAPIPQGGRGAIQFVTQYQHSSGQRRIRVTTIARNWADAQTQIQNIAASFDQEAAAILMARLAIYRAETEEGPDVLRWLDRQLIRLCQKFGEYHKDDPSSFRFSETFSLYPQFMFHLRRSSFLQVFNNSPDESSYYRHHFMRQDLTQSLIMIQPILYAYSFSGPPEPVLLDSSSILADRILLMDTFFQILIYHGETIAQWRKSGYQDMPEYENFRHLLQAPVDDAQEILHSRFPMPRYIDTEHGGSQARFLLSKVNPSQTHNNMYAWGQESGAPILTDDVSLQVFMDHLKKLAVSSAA

[2] = molecular target: T1, SEC23B peptide (a.a. 180-194) (human); test: pull-down; beads coupled to the SEC23B peptide (or unconjugated beads) incubated with whole cell extracts of HEK293T; washed with lysis buffer, eluted, immunoblotting; only the target purified
SEC23B(400-767) (human) = SEC23B(400-767) (human) (UniProt Q15437); test: co-IP; affinity purification of Streptag-tagged bait on Streptactin beads from transfected HEK293T extracts (50 mM Tris pH 7.4, 150 mM NaCl, 2 mM EDTA, 10% glycerol, 0.5% NP-40; 2 h at 4 C), immunoblotting; in some panels MLN4924 for 4 h, EBSS starvation or co-expressed ULK1
[3] = molecular target: Streptag-FLAG-tagged SEC23B(S186D) (human) (UniProt Q15437); test: as above
SEC23B(100-767) (human) = SEC23B(100-767) (human) (UniProt Q15437); test: as above
[4] = molecular target: Streptag-FLAG-tagged SEC23B(S186A) (human) (UniProt Q15437); test: as above
[5] = molecular target: FLAG-HA-tagged FBXW5 (human) (UniProt Q969U6); test: co-IP; immunoprecipitation with FLAG (FLAG-M2) beads from transfected HEK293T extracts, immunoblotting; Figure 1F untreated or MLN4924 for 4 h

binding [1]: binds
Substance: FBXW5, in vitro transcribed/translated (from UniProt Q969U6 1-566)

binding [2]: binds
binding (SEC23B(400-767) (human)): no binding
binding [3]: no binding
binding (SEC23B(100-767) (human)): binds
binding [4]: binds
Substance: endogenous FBXW5 (from UniProt Q969U6 1-566)

binding [5]: no binding
Substance: endogenous SEC23A (from UniProt Q15436 1-765)

Reference: publication PMC6351106
